Source: PubChem BioAssay AID1259415 (National Center for Advancing Translational Sciences (NCATS), 2018)
“And” between values parts separate entries of the source, which are not always exact repeats. Identical values can stand only once. In all, about 410,000 compounds went through this assay and about 18,000 (4.4%) were called active. This list was built around the results that the source calls inconclusive (neither active nor inactive); the mix of calls is not that of the screen. Cut-off read from the data, not from the text of the source: active = activity change below about -60%; inconclusive = no clear call, values can overlap the other calls; inactive = above about -39%.

Assay: qHTS Assay for inhibitors of the human cytomegalovirus (HCMV)
Settings: HFF cells, HCMV-luciferase reporter, 72 h; at 57.5 µM; active compounds read low
In short: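 Two compound doses tested in HFFs infected with HCMV-luciferase, MOI 1 PFU/cell, 72 h at 37C. Lysate luminescence read with OneGlo; data normalized against buffer-only and 10uM Salinomycin inhibitor controls.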
% is set by controls: 0 for no effect and ±100 for the full control effect.

SMILES	activity change, negative = inhibition
CN(C)c1ccc(/C=C/C(=O)c2ccccc2O)cc1	inactive: 18.6%
CN(C)C(CNC(=O)CSc1nc2sc3c(c2c(=O)n1C)CCC3)c1ccccc1 (configuration not stated)	inactive: 6.06%
CCOC(=O)c1ccc(N2C(=O)c3n[nH]c(-c4ccco4)c3C2c2ccccc2OC)cc1 (configuration not stated)	active: -101%
Cc1nccc(-c2ccc3c(c2)OCO3)n1	inconclusive: -40.3%
COc1ccc(CNC(=O)c2nn(C)c3c2CSc2ccccc2-3)cc1	inconclusive: -40.4%
CC(C)(C)NC(=O)Nc1ccc2nccnc2c1	inactive: 118%
O=C(CSc1nc2ccccc2[nH]1)NCc1ccccc1	inactive: 70.5%
CC(=O)Nc1ccc2nc(-c3cccs3)[nH]c2c1	inactive: 89.1%
CC(CN1CCCCC1)OC(=O)c1ccc(Cl)cc1Cl (configuration not stated)	inconclusive: -41.2%
O=C(CCN1C(=O)[C@H]2CC=CC[C@H]2C1=O)NCc1nc(-c2ccc(Cl)cc2)no1	inconclusive: -41.7%
CC(=O)COc1ccc2c3c(c(=O)oc2c1C)CCCCC3	inconclusive: -40.5%
CC1CC(NC(=O)/C(C#N)=C/c2ccc[nH]2)CC(C)(C)C1 (configuration not stated)	inconclusive: -48.3%
O=C(NCCC1CCCCN1S(=O)(=O)c1ccccc1)C(=O)NC1CC1 (configuration not stated)	inactive: -31.3%
O=C(NCCCN1CCOCC1)c1cc(-c2ccc(O)cc2)on1	inactive: 31.9%
O=C(NCCc1ccccc1)C1CCN(C2CCN(C(=O)CC3=CCCCC3)CC2)CC1	inactive: -28.6%
O=C(NCC1CCCO1)c1ccc(CS(=O)(=O)Cc2ccc(F)cc2)o1 (configuration not stated)	inconclusive: -53.9%
COP(=O)(OC)C(Nc1ccccn1)c1ccccc1 (configuration not stated)	inconclusive: -44.3%
COc1cccc(-c2cc3c(-n4cccc4)ncnc3o2)c1	inactive: 30%
CCc1ccc(NC(=O)C2CCCN(S(=O)(=O)c3ccc4[nH]c(=O)ccc4c3)C2)cc1 (configuration not stated)	inconclusive: -42.4%

SMILES	activity change, negative = inhibition
O=C(COc1ccccc1[N+](=O)[O-])Nc1ccc(NC(=O)c2cc3ccccc3o2)cc1	inconclusive: 0%
CC[n+]1c(C)n(C)c2cc(S(=O)(=O)N(C)C)ccc21	inactive: -4.39%
CC(C)(C)c1cc(Cl)c(O)c(NC(=S)NC(=O)c2cccnc2)c1	active: -95.3%
Cc1cccc(-n2c(O)c(C=Nc3ccccc3)c3ccccc3c2=O)n1	inconclusive: -53.1%
O=C(N[C@H]1CC[C@H](CCNS(=O)(=O)c2ccc(Cl)cc2)O[C@@H]1CO)c1cccc(F)c1	active: -101%
Cc1ccc(NC2CCCN(C(=O)c3ccnc(Cl)c3)C2)cc1C (configuration not stated)	inconclusive: -41.6%
O=C(C(=O)c1cc(Br)ccc1O)c1cc(Br)ccc1O	active: -97.3%
COCc1cc(C)nc(NC2CC(C)(C)NC(C)(C)C2)c1C#N	inconclusive: -46.1%
Cc1ccc(CN2CCC(n3nccc3NC(=O)CCCc3ccccc3)CC2)o1	inconclusive: -42.4%
COc1ccc(S(=O)(=O)Nc2cccc(-c3ccc(N4CCCCCC4)nn3)c2)cc1OC	inactive: 29.9% and inactive: 37.7%
CNc1oc(-c2ccccc2)nc1C#N	inactive: 41.1%
Cc1cc(N2CCN(C(C(=O)NC3CCCC3)c3ccc(-c4ccccc4)cc3)CC2)c2ccccc2n1 (configuration not stated)	inactive: -30.9%
Cc1cc(NS(=O)(=O)c2ccc(NC(=O)COc3ccccc3C(C)C)cc2)no1	inconclusive: -42.5%
O=c1c2sc3ccccc3c2n(Cc2cccc(Cl)c2)c(=O)n1Cc1ccccc1	inconclusive: -58.7%
Cc1ccc2nc(NC(=O)c3ccco3)sc2c1	inconclusive: -56.1%
CC(C)c1ccc(/C=C2\SC(=O)N(CC(=O)NC3C=CS(=O)(=O)C3)C2=O)cc1 (configuration not stated)	active: -76.6%
O=C(CCC(=O)c1ccc(F)cc1)NCc1ccccc1C(F)(F)F	inconclusive: -43.8%
O=C1ON=C(c2ccc(Cl)cc2)/C1=C/c1ccc(O)cc1	active: -99.9%
Cc1cc2c([nH]c3ccccc32)c(C)n1	inconclusive: -41.1%

SMILES	activity change, negative = inhibition
CC(Sc1ncn[nH]1)C(=O)NCc1ccccc1 (configuration not stated)	active: -98.6%
CCNS(=O)(=O)c1ccc(NC(=O)c2cncc(Br)c2)cc1	inconclusive: -40.9%
O=C(CCc1c[nH]c2ccccc12)NCCc1ccc(Cl)cc1	inconclusive: -40%
NC(=O)c1cn(C2OC(CO)C(O)C2O)c2ncnc(N)c12 (configuration not stated)	active: -105% and active: -97.1%
CCc1cccc(NC(=O)C2CCCN(c3ncnc4c3nc3n4CCCCC3)C2)c1 (configuration not stated)	inconclusive: -55.9%
Cc1ccc2nc(CSc3nnc(NC(=O)C(C)C)s3)cc(=O)n2c1	inconclusive: -40.9%
CO/N=C/C(C#N)=C/c1ccc(OC)c(OC)c1	inactive: -16.6%
O=[N+]([O-])c1ccccc1S(=O)(=O)N1CCN(Cc2ccsc2)CC1	inactive: 6.38%
N#Cc1c(-c2ccccc2)c(-c2ccccc2)n(Cc2ccco2)c1NC(=O)c1cccs1	inactive: -28.5%
O=C(Oc1ccc(F)cc1C(=O)/C=C/c1cccs1)c1cccc([N+](=O)[O-])c1	inconclusive: -41.3%
Cc1ccc(-n2nc(C)c3c2C(Br)C(C)(C)CC3=O)nc1 (configuration not stated)	inactive: -19.3%
CC1(C)C(C=C(Cl)Cl)C1C(=O)Nc1ccc([N+](=O)[O-])cc1 (configuration not stated)	active: -95.6%
COc1ccc(CCNC(=O)c2ccc(CS(=O)(=O)c3ccc(Cl)cc3)o2)cc1OC	inconclusive: -58.3%
CC(=O)Nc1ccccc1-c1nc2ccc(C(=O)N3CCN(c4ccccc4)CC3)cc2[nH]c1=O	inactive: 49.2%
c1ccc(N2CCOCC2)c(Nc2nc3ccccc3n3cnnc23)c1	inconclusive: -44.8%
COc1ccc(OCCSc2nc(C)nc3ccccc23)cc1	active: -64.6%
O=C(NC1CCSc2ccccc21)c1cccc(OC(F)F)c1 (configuration not stated)	inconclusive: -51.5%
CNc1nc(Cl)nc2c1ncn2-c1ccccc1	inactive: 1.33%
O=C(O)Cc1nc(-c2cccnc2)sc1-c1ccc(Br)cc1	inconclusive: -51.5%
